Our source for the IC50 values is PMC11325555, “Interaction of Bisphenol A and Its Analogs with Estrogen and Androgen Receptor from Atlantic Cod (Gadus morhua)” (Environmental Science & Technology, 2024).

One may read the IC50 as the midpoint of a concentration-inhibition curve.

The experiment deals with T1, Atlantic cod estrogen receptor alpha (gmEra) LBD (Gadus morhua, UniProt U5ILH7).
T1 sequence (U5ILH7 170-455): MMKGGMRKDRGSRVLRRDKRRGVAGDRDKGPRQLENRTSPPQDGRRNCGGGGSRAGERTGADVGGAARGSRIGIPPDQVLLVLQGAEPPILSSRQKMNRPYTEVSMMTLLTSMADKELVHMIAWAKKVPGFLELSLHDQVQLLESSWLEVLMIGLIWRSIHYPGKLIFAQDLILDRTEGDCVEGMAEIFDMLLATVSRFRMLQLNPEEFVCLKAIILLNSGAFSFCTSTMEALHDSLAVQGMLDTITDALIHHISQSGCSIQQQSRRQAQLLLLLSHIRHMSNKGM
Description: Luciferase reporter gene assay, gmEra antagonism (antiestrogenic activity), coexposure with 3 nM EE2. The format is cell-based. As to the method: Ligand activation of gmEra and gmAra was studied with a luciferase reporter gene assay in COS-7 cells transiently transfected with the pCMX-GAL4(DBD)-gmEra(LBD) or pCMX-GAL4(DBD)-gmAra(LBD) plasmid by using the TransIT-LT1 reagent (TransIT-LT1 Transfection Reagent, Mirus). Cells were seeded into 96-well plates (5000 cells/well) and incubated for 24 h before cotransfection with the plasmid mixture (100 ng/well). The plasmid mixture contained GAL4-UAS luciferase reporter plasmid (tk-(MH100)x4 luc), the pCMX-GAL4(DBD)-gmEra(LBD) or pCMX-GAL4(DBD)-gmAra(LBD) receptor plasmids (2:1 reporter:receptor plasmid mass ratio), and a plasmid constitutively producing the β-galactosidase enzyme used for normalization of transfection efficiency (pCMV- β-Gal). […] The maximum DMSO/methanol concentrations in the exposure wells were 0.5% (v/v) in DMEM medium without phenol red (Sigma-Aldrich). After exposure, cells were lysed, and luciferase and beta-galactosidase activities were measured as luminescence and absorbance (420 nm) after the addition of luciferin and ONPG substrates, respectively, using an Enspire Multimode plate reader (PerkinElmer, Waltham, Massachusetts, USA). […]
On the technique in general: Reporter assays use an easily measured gene product as a stand-in for the process of interest.

`CC/C(=C(\c1ccccc1)c1ccc(OCCN(C)C)cc1)c1ccccc1` [tamoxifen, reference compound]: the half-maximal inhibitory concentration (IC50) was 1.5 nM.
